In the supplement of paper PMC3334620:
Whole data set: some 33,000 sequences, median “E-score (-0.5 to 0.5)” near -0.0014, cut for the highest 2% near 0.25. The list shows a part of the results.

target: T1, Cad1 (UniProt P24813); test: PBM E-score (8-mer binding enrichment) (E-score (-0.5 to 0.5)); higher = stronger / more preferred TF binding; settings: protein concentration: 100 nM; construct: GST-full length
T1 sequence: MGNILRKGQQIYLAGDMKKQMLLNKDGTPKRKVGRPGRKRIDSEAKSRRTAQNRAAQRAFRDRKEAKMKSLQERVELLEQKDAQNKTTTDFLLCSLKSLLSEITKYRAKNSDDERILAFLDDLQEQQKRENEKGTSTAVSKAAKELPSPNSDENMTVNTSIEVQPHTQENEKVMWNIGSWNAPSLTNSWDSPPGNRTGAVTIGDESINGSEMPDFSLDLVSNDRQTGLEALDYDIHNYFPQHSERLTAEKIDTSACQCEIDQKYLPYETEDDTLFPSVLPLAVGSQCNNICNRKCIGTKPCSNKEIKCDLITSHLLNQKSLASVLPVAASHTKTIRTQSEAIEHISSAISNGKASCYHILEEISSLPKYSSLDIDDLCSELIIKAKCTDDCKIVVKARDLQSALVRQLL
Outline: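 Each ungapped eight-base word and its reverse complement, pooled, received an E-score from the Universal PBM Analysis Suite. Underlying scans, normalised with masliner, recorded fluorescent anti-GST bound to GST-tagged yeast transcription factors. These were applied at about 100-200 nM to universal all-10-mer Agilent arrays double-stranded by primer extension.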

Sequence | PBM E-score
CATTCCCA | -0.028
ATGCCGCA | 0.0493
ACCTGGAA | 0.187
GAGATTGA | 0.00123
GAAGAGGA | -0.286
ACTCTTCT | -0.227
CTAGCTCC | -0.159
AGGTCCGA | 0.127
AACAATGA | 0.13
CCCTCCCC | -0.00723
ATTCTAAG | 0.0377
AATGTCTC | -0.0702
CCACCCCG | -0.119
CCTCAAAC | -0.128
ACCGCTGG | -0.213
CGCCCAAC | 0.0447
CAATGCGA | -0.00381
AGGGACAG | -0.163
TCTCAACA | 0.0862
GAACTCGC | 0.228
AGAGTAAT | 0.104
TCATTGCA | 0.0456

Sequence | PBM E-score
AATTAGCG | 0.207
AGAACGTA | 0.00725
ACTTCCAG | -0.224
AGTAGCCG | 0.00943
CCCGCGCC | -0.118
AGTGATAG | -0.0273
TGCACGAA | 0.15
TCAAAAAA | -0.00687
TCAGTGGA | -0.149
CCAGCCGG | -0.0587
ACAAACGA | 0.0882
ATCTGCAT | 0.174
ACTGTTAT | 0.156
AAGTAACT | -0.0701
CGAAATCA | 0.306
CGAGAAGA | -0.081
ATCGACCG | -0.0243
CGAGTTGC | 0.203
GCCTCACA | 0.0301
ATCGCGAA | 0.243
CTGGGCGA | -0.176
AAGGCGAT | -0.0261

Reformatted as labelled records: entries from further up.
AGAACGTA
  PBM E-score: 0.00725
ACTTCCAG
  PBM E-score: -0.224
ATCTGCAT
  PBM E-score: 0.174
CGAGAAGA
  PBM E-score: -0.081

(continued)

Sequence | PBM E-score
GATAATCA | 0.169
ATGTGAAG | 0.0915
AATTGAAA | 0.133
TGTAGTAA | 0.145
CATCATTC | 0.0927
CCAGAATC | 0.0559
GCTCTAAC | -0.137
ATTCTGAC | 0.00765
CACTGAGG | -0.118
CATGGGGC | -0.0704
GCAGCCAA | 0.0102
CAGAAGTA | 0.0907
CTCGGCTC | -0.0411
TCAACCCA | 0.00685
AGGTAAGC | 0.102
ATGAGTGA | 0.0719
CTCGCTAC | -0.142
CCAAGGGG | -0.115
GATAGTGA | 0.157
AAGATGAG | -0.147
GAGCTAGC | 0.137
AAGAGCAC | 0.0293

Sequence | PBM E-score
CCACGCGA | 0.038
GAGCCATA | -0.0447
AAACCATA | -0.0247
CGTGTCGC | 0.0209
CACACTGG | 0.0121
AGAAGCGA | -0.0529
CAATCAGA | -0.227
ACAGTCAG | 0.124
CACCAACC | 0.0405
ACAATTAA | 0.148
CATGGATA | 0.0404
GCGAAAAC | -0.0371
AACACTTA | -0.0762
AATAACGT | 0.112
CGGGAGTC | 0.0153
CGTTAACA | 0.198
ATAACAGG | -0.0342
ACTTTACT | 0.0633
ACGGAGCA | -0.0644
GAGATCGA | 0.0874
